Among the data in doi:10.1101/2025.05.02.25326757 are binding values, retold here.

Chains of the proteins cited; added tags and fusions are not shown. Residues count along the entry.
UniProt Q13616: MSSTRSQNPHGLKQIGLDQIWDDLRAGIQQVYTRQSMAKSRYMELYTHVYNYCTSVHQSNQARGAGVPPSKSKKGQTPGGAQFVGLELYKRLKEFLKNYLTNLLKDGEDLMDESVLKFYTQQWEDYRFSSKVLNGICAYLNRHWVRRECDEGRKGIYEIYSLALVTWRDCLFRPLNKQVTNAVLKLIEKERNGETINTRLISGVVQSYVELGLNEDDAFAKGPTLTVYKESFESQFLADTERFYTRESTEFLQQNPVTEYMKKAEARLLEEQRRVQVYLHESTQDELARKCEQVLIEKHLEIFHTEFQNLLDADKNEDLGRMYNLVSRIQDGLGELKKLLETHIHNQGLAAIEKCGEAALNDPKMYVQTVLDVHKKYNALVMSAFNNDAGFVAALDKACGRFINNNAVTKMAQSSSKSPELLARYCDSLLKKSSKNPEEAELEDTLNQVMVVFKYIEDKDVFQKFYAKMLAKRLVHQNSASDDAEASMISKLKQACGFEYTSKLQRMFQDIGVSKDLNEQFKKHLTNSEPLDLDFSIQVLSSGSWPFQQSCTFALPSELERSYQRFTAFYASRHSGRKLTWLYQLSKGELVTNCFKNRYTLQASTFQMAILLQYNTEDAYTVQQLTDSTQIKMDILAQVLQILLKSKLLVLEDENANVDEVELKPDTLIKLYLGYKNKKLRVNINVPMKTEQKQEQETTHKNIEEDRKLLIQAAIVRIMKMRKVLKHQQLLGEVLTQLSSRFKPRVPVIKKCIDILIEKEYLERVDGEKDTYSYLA
UniProt P42263, residues 29-894: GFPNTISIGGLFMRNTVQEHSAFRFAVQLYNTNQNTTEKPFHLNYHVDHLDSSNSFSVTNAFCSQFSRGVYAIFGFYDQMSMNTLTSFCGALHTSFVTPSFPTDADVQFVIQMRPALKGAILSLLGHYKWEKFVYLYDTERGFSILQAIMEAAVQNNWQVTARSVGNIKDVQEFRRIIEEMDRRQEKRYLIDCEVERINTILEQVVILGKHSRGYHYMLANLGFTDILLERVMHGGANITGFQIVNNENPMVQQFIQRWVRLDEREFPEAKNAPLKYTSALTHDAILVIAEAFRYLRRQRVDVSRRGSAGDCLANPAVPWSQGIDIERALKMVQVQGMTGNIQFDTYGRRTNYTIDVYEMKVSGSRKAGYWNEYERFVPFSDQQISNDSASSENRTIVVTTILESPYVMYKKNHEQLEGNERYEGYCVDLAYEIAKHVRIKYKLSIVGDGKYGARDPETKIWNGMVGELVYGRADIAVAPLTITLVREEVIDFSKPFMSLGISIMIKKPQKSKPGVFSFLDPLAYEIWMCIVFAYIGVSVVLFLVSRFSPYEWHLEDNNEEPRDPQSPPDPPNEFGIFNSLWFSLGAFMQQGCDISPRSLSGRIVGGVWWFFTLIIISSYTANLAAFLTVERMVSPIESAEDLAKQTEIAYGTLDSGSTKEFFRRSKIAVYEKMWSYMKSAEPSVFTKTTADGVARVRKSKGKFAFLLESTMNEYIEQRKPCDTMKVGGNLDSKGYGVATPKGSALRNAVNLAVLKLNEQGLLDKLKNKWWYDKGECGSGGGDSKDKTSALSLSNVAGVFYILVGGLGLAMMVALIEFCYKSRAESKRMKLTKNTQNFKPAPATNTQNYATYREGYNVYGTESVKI
UniProt Q02446: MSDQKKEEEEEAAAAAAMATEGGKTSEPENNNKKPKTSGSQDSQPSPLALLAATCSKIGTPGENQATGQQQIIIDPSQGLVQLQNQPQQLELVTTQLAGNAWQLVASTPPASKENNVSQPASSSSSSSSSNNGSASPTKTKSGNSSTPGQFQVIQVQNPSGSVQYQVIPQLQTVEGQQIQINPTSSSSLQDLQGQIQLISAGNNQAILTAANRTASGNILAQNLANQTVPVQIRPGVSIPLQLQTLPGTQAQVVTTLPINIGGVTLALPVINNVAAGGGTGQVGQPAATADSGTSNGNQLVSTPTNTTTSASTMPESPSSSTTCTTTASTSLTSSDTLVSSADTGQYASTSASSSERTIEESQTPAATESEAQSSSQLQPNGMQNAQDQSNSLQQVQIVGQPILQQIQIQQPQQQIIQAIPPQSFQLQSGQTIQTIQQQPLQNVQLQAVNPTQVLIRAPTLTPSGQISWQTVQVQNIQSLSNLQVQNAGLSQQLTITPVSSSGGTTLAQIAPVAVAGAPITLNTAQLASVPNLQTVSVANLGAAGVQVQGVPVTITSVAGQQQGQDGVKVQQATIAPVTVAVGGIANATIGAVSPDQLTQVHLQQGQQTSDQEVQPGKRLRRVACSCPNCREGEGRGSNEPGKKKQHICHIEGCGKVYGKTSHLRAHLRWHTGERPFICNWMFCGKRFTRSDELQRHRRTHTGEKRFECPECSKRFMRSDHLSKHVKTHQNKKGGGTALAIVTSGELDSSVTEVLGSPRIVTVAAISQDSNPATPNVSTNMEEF
UniProt Q9UQ35: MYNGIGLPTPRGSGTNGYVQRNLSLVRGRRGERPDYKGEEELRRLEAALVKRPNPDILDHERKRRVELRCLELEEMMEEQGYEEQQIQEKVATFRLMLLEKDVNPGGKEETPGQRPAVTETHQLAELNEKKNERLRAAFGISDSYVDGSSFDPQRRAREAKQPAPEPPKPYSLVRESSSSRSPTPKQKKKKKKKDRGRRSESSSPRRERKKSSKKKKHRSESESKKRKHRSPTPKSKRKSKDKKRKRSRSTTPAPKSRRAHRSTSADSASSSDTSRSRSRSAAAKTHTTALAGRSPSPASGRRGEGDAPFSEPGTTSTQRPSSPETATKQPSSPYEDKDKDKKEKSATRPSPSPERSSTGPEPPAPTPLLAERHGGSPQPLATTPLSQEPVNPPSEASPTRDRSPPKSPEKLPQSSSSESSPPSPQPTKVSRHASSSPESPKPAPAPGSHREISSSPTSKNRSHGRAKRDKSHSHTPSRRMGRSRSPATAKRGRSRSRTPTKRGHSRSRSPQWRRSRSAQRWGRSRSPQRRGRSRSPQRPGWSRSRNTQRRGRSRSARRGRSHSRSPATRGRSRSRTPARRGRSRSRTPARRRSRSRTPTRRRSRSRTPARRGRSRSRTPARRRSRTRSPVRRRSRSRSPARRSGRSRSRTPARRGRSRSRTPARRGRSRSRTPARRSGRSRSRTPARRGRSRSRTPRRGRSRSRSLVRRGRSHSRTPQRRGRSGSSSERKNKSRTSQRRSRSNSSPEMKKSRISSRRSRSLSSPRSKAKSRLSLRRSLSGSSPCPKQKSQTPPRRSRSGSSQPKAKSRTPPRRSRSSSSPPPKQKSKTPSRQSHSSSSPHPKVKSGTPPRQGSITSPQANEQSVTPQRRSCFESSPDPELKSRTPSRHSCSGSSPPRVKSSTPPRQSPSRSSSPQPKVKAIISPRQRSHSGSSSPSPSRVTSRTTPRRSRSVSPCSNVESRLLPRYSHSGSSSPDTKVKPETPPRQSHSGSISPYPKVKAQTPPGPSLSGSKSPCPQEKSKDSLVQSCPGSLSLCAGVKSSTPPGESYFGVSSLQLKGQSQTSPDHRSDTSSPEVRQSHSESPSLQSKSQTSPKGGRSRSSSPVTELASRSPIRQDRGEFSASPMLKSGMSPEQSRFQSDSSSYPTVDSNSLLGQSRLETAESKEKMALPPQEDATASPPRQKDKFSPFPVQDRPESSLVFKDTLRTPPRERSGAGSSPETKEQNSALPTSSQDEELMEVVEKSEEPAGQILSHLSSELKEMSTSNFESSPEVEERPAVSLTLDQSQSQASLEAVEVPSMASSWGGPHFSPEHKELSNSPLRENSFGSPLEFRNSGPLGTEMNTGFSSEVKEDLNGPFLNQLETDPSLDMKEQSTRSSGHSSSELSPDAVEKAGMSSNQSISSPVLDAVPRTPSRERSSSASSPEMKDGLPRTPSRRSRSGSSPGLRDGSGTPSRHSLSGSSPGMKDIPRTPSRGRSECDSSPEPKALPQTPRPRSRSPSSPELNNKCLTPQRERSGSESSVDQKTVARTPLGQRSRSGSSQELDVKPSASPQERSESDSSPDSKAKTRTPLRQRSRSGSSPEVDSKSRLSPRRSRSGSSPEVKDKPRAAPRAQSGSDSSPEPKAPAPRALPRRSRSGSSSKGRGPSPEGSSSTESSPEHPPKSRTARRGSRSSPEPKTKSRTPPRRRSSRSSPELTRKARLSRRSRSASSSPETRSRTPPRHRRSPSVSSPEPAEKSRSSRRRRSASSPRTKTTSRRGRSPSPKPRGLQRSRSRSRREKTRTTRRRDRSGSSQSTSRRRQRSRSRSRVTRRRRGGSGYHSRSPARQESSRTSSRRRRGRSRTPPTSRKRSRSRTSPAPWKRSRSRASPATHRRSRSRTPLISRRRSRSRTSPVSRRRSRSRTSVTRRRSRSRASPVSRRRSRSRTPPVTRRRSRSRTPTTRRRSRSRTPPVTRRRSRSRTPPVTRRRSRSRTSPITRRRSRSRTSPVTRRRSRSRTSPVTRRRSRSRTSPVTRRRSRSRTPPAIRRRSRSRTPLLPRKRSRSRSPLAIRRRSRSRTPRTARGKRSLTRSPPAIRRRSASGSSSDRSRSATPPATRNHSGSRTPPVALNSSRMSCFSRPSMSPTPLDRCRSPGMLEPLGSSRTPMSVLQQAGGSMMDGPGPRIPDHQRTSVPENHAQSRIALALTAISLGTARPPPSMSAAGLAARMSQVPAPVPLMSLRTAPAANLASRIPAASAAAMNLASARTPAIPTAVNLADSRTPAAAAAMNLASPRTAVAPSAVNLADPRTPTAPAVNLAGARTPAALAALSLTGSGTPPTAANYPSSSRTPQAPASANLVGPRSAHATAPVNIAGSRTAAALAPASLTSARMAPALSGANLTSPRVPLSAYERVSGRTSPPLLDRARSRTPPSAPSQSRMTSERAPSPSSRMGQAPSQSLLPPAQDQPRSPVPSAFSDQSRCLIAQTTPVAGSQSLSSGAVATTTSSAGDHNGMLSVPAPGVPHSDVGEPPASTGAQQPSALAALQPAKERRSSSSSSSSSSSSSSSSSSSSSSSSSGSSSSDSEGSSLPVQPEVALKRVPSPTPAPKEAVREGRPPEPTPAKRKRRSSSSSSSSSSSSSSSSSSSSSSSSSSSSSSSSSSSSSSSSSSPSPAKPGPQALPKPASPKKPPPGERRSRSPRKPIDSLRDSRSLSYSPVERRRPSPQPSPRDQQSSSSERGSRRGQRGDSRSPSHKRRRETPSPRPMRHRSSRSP
UniProt P49840: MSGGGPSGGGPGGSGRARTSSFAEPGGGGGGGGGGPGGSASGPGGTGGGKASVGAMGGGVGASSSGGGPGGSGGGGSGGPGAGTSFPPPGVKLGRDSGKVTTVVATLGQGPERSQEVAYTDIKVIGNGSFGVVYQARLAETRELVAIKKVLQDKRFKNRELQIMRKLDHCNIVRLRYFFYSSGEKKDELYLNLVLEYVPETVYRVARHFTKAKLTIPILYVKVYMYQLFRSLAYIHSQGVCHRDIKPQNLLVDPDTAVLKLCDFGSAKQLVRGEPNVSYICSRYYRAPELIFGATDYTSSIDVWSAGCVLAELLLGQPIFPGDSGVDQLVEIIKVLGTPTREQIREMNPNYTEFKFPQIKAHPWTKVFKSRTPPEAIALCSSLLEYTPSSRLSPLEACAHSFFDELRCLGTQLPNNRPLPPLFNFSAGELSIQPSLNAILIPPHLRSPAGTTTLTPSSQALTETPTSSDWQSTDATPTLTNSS
UniProt P49841: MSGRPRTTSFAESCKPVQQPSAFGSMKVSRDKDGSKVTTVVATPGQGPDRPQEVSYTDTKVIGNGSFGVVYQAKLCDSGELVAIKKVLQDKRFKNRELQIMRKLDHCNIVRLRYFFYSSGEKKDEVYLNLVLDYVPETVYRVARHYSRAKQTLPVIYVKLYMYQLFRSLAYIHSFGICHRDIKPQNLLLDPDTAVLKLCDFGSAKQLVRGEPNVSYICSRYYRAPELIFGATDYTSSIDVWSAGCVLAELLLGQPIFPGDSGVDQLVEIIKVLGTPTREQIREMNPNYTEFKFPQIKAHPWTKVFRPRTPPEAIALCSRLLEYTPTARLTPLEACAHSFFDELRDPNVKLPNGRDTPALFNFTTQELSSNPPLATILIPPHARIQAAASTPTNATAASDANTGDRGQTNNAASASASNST

Common to all, as to assay: affinity purification with mass spectrometry
Test [1] concerns the target CUL1 (human (endogenous in human stem cell-derived neuronal cells and human cortex)) (UniProt Q13616).
For test [2], the target named is GRIA3 (human (endogenous in human stem cell-derived neuronal cells and human cortex)) (UniProt P42263).
Test [3] deals with T1, HCN4 (human (endogenous in human stem cell-derived neuronal cells and human cortex)) (UniProt Q9Y3Q4).
T1 sequence: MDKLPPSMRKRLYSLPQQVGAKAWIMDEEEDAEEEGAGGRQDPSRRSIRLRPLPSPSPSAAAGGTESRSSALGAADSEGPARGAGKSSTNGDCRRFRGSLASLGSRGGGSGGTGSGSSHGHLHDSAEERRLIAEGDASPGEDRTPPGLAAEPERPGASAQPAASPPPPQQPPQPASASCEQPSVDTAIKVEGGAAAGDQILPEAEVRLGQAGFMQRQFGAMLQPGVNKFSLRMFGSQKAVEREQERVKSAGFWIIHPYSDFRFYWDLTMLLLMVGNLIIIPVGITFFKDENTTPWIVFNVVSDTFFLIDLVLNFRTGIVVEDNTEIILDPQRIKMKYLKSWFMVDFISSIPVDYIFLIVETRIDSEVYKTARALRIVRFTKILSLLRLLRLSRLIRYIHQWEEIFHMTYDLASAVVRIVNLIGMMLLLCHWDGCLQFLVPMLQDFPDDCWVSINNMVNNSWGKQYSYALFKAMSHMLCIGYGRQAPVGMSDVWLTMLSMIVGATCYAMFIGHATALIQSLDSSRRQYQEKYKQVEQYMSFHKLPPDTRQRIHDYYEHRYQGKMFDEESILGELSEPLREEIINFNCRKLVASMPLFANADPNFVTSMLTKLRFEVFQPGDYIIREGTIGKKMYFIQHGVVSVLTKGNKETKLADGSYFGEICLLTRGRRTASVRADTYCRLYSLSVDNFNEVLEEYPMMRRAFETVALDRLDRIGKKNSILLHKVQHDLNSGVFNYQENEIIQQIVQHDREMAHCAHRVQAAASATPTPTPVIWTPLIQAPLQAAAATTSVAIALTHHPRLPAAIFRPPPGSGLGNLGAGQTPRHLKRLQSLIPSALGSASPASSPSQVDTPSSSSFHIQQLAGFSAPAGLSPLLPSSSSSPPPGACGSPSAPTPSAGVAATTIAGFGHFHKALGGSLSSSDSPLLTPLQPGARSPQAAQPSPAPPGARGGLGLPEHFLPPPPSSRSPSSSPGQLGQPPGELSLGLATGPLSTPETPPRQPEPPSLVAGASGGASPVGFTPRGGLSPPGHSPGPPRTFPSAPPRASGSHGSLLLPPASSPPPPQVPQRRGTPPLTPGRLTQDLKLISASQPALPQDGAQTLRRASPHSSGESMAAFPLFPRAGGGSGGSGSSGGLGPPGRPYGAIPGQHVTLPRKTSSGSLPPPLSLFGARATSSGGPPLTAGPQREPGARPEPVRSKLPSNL

Test [4] concerns the target HERC1 (human (endogenous in human stem cell-derived neuronal cells and human cortex)) (UniProt Q15751).
Test [5] addresses MAGI2 (human (endogenous in human stem cell-derived neuronal cells and human cortex)) (UniProt Q86UL8).
The target in test [6] is RB1CC1 (human (endogenous in human stem cell-derived neuronal cells and human cortex)) (UniProt Q8TDY2).
For test [7], the target named is SETD1A (human (endogenous in human stem cell-derived neuronal cells and human cortex)) (UniProt O15047).
For test [8], the target named is SP4 (human (endogenous in human stem cell-derived neuronal cells and human cortex)) (UniProt Q02446).
Test [9] deals with SRRM2 (human (endogenous in human stem cell-derived neuronal cells and human cortex)) (UniProt Q9UQ35).
Test [10] addresses TRIO (human (endogenous in human stem cell-derived neuronal cells and human cortex)) (UniProt O75962).
Test [11] concerns the target T2, XPO7 (human (endogenous in human stem cell-derived neuronal cells and human cortex)) (UniProt Q9UIA9).
T2 sequence: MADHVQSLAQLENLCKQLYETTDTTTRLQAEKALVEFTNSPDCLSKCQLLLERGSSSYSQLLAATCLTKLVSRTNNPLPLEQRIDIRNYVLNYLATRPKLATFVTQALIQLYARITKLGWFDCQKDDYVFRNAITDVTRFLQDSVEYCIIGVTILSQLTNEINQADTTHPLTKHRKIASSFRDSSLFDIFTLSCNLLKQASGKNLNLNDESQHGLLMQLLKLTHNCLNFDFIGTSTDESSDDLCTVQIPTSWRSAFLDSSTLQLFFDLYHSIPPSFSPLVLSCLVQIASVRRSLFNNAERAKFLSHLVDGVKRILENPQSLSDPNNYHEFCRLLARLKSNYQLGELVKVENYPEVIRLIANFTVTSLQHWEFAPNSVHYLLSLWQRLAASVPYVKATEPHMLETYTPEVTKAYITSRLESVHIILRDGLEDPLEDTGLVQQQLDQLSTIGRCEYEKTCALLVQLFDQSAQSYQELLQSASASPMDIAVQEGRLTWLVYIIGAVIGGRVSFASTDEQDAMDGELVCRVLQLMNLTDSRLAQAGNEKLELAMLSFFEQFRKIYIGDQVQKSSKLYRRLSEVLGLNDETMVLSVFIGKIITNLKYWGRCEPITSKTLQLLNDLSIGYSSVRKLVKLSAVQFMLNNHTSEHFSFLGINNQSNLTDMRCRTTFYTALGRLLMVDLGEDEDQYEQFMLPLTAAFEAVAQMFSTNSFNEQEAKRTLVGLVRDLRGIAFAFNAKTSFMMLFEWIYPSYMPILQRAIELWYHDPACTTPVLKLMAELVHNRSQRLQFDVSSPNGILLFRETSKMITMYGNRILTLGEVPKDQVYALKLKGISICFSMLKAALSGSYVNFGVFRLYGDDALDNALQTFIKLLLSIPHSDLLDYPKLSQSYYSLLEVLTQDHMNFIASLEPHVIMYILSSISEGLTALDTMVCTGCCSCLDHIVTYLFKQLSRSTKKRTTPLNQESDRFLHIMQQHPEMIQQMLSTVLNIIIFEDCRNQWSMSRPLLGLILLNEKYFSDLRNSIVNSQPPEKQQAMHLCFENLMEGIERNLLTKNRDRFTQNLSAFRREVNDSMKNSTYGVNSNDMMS

For test [12], the target named is T3, ZMYM2 (human (endogenous in human stem cell-derived neuronal cells and human cortex)) (UniProt Q9UBW7).
T3 sequence: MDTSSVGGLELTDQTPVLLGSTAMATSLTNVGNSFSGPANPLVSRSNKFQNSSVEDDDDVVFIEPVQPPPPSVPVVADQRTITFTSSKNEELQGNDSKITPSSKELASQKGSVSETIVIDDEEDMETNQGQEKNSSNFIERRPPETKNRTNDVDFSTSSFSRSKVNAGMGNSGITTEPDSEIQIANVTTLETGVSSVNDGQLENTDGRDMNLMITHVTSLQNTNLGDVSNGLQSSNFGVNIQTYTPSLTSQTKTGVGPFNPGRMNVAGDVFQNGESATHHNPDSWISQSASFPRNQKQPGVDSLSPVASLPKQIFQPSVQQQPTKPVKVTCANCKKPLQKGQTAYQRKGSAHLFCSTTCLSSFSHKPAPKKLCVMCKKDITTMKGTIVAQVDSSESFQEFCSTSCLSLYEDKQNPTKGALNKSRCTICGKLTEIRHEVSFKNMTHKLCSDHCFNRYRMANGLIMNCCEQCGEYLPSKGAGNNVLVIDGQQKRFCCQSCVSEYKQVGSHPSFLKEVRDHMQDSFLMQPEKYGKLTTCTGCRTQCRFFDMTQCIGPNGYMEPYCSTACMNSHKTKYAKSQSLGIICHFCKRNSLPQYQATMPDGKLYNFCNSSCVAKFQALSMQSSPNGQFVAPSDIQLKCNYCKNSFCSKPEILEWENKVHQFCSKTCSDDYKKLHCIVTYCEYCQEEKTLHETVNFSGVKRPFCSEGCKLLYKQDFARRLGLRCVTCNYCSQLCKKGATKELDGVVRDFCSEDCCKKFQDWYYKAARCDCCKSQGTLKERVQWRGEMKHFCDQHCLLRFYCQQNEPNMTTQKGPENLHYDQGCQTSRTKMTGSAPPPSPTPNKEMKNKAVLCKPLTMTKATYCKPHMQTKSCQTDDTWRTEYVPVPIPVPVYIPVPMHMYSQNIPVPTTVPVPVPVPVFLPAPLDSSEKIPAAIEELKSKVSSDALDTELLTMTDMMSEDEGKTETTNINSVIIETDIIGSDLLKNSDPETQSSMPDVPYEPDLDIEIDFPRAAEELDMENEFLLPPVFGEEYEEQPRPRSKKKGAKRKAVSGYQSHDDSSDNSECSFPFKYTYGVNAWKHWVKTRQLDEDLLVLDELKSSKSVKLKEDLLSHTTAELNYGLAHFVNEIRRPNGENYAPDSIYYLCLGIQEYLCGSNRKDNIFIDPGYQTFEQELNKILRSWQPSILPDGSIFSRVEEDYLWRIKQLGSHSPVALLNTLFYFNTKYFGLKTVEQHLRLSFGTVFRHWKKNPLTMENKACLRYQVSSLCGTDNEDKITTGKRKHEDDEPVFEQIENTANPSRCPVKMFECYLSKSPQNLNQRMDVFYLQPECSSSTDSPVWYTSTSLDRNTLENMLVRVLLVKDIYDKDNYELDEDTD

For test [13], the target named is SRRM2 (human (endogenous in human stem cell-derived neuronal cells and human cortex)) (UniProt Q9UQ35). This is another data set of the same source.
Test [14] has as its target TRIO (human (endogenous in human stem cell-derived neuronal cells and human cortex)) (UniProt O75962). The source holds these as a separate data set.

Read-outs that look alike come from different tables or passages of the source. These are yes or no findings as the source states them, for the method shown. Binding seen in cells or lysates may run through a third protein. These calls come from enrichment with a bait or labelling near it, and not all partners need be listed. For some of these results: A no says only that the protein was not detected with the bait.

Regarding “GSK3A (from UniProt P49840 1-483) (enzyme)”, the binding result in [1], in test [2], in test [3], in test [4], in test [5] and in [6] was “no binding” each time. Besides, the binding entry in test [7], in test [8], in [9], in test [10], in test [11] and in test [12] was “no binding” in each case.
As to “Glycogen Synthase Kinase-3 Beta (from UniProt P49841 1-420) (enzyme)”, the binding result in test [9], in test [10], in [13] and in test [14] was “binds” throughout.
